Measured values taken from PMC6166933.
No constants are given. Whether binding was seen depends on the method and setting. In cells and extracts the contact can be indirect. Some entries that bind do so weakly or less than the wild type.

Sequences of proteins named here, by UniProt entry; tags and fusion partners are left off.
UniProt P26196: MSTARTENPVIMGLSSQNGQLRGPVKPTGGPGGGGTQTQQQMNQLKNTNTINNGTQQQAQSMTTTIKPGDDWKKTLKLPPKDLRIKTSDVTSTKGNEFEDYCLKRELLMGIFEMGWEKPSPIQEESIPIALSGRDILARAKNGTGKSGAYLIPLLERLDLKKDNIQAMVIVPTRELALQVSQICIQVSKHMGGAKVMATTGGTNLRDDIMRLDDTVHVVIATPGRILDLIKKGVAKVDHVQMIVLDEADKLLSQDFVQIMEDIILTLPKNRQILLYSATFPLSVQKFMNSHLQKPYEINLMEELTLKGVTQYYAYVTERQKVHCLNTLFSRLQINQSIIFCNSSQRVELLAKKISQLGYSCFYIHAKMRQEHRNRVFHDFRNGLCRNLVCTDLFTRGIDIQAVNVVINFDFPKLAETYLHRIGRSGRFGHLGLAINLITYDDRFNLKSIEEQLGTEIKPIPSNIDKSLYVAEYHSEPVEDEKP
UniProt P10155: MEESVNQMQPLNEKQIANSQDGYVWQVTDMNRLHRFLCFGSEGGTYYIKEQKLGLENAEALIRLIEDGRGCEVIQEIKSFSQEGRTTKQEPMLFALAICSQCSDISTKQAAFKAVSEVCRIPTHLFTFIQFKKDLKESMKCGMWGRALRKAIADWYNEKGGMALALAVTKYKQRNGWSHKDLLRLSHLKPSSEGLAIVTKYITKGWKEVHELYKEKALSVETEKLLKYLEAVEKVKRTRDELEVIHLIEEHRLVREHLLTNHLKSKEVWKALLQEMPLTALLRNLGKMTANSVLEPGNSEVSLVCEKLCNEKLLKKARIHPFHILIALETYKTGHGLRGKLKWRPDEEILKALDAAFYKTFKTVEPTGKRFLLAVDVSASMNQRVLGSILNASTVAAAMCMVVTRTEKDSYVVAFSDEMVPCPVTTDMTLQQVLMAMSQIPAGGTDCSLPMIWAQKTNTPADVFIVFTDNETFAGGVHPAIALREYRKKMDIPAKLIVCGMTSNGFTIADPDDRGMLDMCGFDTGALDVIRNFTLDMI
UniProt Q8NDV7: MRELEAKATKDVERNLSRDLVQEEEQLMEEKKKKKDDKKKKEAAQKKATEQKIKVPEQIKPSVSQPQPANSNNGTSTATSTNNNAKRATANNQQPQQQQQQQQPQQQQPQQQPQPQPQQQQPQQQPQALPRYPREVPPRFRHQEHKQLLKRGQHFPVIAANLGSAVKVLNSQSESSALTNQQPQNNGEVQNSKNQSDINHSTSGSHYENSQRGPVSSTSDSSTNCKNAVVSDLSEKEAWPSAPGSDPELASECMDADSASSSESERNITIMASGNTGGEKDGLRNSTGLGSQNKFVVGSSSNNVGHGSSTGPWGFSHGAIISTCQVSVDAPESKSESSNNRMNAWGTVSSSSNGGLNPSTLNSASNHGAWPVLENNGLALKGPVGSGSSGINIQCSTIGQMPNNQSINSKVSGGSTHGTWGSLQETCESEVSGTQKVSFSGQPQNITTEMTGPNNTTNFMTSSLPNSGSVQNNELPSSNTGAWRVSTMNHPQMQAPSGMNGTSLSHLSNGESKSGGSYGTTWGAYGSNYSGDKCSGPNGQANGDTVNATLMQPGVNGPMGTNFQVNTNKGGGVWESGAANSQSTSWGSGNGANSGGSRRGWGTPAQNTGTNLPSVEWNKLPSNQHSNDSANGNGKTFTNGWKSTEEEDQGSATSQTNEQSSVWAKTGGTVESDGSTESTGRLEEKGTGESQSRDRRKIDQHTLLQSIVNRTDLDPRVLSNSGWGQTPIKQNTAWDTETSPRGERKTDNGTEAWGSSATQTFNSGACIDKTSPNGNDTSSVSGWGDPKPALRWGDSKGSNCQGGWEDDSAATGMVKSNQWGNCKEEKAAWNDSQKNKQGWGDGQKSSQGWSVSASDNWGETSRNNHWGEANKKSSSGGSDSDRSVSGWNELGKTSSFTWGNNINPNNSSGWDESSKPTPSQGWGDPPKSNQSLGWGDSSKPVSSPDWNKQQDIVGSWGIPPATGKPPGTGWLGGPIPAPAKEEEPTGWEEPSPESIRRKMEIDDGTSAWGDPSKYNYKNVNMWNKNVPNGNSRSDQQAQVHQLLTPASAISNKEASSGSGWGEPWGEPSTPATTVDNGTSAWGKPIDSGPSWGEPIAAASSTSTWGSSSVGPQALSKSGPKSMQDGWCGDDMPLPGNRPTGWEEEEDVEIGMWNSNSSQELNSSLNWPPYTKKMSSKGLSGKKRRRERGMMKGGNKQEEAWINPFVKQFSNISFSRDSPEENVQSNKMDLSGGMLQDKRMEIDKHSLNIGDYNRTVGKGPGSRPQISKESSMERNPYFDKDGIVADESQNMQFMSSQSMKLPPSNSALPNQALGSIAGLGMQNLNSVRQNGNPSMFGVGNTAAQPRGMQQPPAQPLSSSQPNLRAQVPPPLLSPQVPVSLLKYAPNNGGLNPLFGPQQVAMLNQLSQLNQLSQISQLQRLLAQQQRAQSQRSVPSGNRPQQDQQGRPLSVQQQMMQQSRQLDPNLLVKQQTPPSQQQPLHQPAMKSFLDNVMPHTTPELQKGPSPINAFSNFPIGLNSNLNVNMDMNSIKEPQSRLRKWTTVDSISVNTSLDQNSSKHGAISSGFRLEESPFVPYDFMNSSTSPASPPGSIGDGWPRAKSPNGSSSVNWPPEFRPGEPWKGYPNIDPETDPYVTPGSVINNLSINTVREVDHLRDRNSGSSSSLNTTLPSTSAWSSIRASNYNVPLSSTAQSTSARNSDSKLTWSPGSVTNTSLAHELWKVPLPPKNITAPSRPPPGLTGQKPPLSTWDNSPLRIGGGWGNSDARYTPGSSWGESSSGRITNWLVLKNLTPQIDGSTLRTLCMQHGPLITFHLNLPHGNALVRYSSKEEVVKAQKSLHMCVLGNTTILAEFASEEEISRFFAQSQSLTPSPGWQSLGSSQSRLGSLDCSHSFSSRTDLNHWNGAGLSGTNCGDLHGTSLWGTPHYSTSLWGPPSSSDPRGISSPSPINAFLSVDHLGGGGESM

Target: DDX6 (human (endogenous in TIG-1)) (UniProt P26196)
Assay: co-IP; TIG-1 fibroblast protein lysates incubated with anti-RO60 or anti-DDX6 antibody-conjugated magnetic beads for 2 hr at 4°C, immunoblot; growth phase; also OSKM- and siRNA (siNeg, siRNY1)-treated cells on Day 3 (more RO60-DDX6 and less DDX6-TNRC6A after RNY1 knock-down)

| binding | Substance |
| --- | --- |
| binds | Ro 60-kDa protein (RO60) (from UniProt P10155 1-538) |
| binds | TNRC6A (from UniProt Q8NDV7 1-1962) |
